Measured values: publication PMC6650470
Results are given in words; binding and its absence hold for the method and conditions named. In cells and extracts the contact can be indirect. Some results given as binding are weak or reduced against the parent protein; the word gives no strength. Sequences can lack the tags named with a protein.

Columns and labels:
[1] = molecular target: T1, Cdc13-FLAG (S. cerevisiae) (UniProt P32797); experiment: co-IP; anti-FLAG M2 magnetic beads, 7 mg asynchronous whole cell lysate, 1 hour at 4 °C; TMG buffer, washes up to 500 mM NaCl with 0.5% Tween-20; blots with α-myc (Est1) and α-FLAG (Cdc13); wild type, yku70∆, yku80∆, yku70-R456E and yku80-135i strains
T1 sequence: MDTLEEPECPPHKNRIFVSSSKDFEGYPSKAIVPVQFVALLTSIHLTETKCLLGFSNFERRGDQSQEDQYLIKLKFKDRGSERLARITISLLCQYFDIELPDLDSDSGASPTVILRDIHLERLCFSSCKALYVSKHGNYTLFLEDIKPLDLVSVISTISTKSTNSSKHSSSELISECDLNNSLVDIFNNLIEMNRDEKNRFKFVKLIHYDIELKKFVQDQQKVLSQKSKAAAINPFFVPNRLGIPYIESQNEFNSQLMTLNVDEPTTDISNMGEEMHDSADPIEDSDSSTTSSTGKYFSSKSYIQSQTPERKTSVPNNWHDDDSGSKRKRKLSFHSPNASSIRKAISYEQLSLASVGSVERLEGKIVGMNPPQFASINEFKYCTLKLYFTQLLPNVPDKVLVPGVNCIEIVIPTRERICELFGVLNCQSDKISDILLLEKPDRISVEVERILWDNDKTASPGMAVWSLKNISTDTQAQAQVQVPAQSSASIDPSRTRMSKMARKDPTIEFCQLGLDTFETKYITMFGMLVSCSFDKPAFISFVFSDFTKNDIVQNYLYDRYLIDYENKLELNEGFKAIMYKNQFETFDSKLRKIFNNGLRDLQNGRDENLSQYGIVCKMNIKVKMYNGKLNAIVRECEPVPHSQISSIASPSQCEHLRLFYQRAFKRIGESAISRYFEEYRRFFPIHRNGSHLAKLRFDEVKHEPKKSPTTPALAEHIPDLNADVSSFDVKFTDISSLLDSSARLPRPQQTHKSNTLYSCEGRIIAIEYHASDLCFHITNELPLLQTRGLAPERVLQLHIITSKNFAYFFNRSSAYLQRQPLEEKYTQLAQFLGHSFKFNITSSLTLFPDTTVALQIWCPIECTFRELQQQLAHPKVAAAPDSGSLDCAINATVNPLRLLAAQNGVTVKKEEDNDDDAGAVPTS

[2] = molecular target: T2, Yku70/Yku80 (Ku) heterodimer with Yku80-FLAG (S. cerevisiae) (UniProt P32807+Q04437); experiment: co-IP; anti-FLAG M2 magnetic beads, 4 mg whole cell lysate, 1 hour at 4 °C; TMG buffer, washes up to 500 mM NaCl with 0.5% Tween-20; blots with α-myc (Est1) and α-FLAG (Yku80); strains also with TLC1 overexpression or empty vector
T2 sequence 1: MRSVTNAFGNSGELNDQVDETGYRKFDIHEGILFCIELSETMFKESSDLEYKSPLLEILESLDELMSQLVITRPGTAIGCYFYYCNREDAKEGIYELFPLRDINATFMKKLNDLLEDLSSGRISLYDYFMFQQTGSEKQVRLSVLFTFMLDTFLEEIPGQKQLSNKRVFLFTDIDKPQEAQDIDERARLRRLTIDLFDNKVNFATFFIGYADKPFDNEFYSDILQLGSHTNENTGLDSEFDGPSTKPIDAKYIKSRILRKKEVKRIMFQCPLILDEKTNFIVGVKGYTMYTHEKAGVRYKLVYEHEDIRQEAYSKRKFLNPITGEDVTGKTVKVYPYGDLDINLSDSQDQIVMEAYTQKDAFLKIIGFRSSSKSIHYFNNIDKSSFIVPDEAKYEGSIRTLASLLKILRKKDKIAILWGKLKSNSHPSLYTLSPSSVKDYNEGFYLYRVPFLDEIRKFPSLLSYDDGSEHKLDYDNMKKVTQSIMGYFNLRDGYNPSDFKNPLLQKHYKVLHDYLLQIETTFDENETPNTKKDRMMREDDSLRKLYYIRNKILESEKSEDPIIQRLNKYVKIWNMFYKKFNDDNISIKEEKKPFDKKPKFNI
T2 sequence 2: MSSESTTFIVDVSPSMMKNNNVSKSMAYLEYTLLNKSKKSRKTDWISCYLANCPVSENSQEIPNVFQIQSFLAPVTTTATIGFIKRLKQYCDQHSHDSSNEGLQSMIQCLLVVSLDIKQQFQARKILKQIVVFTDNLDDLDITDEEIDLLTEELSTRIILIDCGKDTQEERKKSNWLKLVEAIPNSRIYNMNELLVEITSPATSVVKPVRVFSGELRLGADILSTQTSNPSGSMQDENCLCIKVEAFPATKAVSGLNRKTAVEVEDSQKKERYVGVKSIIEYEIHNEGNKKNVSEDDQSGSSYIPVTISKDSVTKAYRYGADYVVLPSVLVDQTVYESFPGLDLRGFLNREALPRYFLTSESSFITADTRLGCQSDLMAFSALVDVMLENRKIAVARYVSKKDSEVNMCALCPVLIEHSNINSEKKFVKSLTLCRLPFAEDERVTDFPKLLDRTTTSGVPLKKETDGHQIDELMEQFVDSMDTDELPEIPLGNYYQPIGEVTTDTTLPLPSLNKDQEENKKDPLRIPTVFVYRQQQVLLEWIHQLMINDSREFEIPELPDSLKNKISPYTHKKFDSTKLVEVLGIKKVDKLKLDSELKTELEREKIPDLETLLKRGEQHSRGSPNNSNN

[3] = molecular target: T3, Yku70-R456E/Yku80 heterodimer with Yku80-FLAG (S. cerevisiae) (UniProt P32807+Q04437); experiment: as above
T3 sequence 1: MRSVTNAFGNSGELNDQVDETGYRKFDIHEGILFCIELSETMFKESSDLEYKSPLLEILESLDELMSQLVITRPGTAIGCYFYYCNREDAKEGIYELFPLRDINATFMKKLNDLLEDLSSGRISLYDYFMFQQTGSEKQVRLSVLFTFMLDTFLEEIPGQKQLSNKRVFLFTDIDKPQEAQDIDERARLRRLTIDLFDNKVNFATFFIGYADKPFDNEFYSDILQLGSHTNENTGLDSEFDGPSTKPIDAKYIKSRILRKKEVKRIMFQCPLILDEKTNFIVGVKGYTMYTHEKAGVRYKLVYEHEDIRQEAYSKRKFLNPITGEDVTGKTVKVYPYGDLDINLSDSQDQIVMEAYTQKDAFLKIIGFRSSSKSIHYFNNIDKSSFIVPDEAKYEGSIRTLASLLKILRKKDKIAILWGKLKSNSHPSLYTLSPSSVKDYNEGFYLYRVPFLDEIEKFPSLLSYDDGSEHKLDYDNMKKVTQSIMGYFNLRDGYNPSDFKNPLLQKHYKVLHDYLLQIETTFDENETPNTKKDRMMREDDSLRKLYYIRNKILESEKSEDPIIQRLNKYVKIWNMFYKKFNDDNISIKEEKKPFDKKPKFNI
T3 sequence 2: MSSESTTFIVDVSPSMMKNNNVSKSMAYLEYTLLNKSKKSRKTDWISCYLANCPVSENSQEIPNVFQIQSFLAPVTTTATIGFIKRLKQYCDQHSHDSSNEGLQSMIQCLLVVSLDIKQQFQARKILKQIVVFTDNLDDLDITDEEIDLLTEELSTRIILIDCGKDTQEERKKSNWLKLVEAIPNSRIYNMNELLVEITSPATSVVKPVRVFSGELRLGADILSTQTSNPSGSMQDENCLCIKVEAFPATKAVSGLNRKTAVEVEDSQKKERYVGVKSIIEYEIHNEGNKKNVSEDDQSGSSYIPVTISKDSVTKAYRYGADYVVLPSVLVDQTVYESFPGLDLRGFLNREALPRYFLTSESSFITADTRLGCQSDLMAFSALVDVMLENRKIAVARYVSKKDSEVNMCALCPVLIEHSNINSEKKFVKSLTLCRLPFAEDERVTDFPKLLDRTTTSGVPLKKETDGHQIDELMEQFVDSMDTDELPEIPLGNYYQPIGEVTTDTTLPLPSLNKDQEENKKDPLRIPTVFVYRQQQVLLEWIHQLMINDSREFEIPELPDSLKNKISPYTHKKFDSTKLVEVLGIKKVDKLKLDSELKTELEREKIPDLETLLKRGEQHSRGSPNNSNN

- binding [1]: binds
- binding [2]: binds
- binding [3]: binds
B1: Est1-myc (protein, UniProt P17214 1-699)
chain: MDNEEVNEECMRLFFKNARAHLDKHLTSRLTCDENAYITFRCFLDGIHRKSTRFLEELLLKQENMYHNNNYERINDSVIPLVLKLLWLQIHEPTLQWFEHWFHDIMRLSNRRKFRVFRIFQKKMIQFFKITHRYYYDIIEHLCAKYDMNSVISNALFAKLNLMQYTDGLSTHEKIILNTSNPLTFSIVISLQRCVINLGSTHFYKTLLNKPSNKPKSVEGFEKSIRYLNIASLYLPAVGDTYFQRAKIYLITGKFSLYFFELVRGALVRIPSKCALNNLKDFILTPDFPERRRLMKKLAILVSKDLKGEKSFFEGQIVLQFLSIVEHTLVPQSWNASRASNCWLLKEHLQMAALKYHSGNINVILENLAATMGSFDLMFTTRKSKEQKNKLKYADLSERQVFFLDLSFDFIANIIDVVIKPSWQKNMEDFRYLAIIRLLMCWIKSYRSILQYTHRHRKFCTSFALLLNDLINSPLNCSGNIYSHRPKRSYLFREDIIFREFSCINFALTDFNDDYVYDSPDMINNIIGCPTLTKVLSPKEECVLRIRSIIFSGMKFLEKNDTGVIWNASKYKFDLISPNIKIKRQIALSEISSKINVKTQQERVVSSRKVEAKRDEQQRKRAGKIAVTELEKQFANVRRTKKLSPLPEKDGVSSELVKHAASRGRKTITGPLSSDFLSYPDEAIDADEDITVQVPDTPT
